Assay results taken from the supplement of paper PMC10849652.
The list shows a part of the results.

Amino acid sequences for entries named in this document (tags omitted). A change or cut given only in a name is not applied to a line headed by its entry.
UniProt Q8IXQ5, whole entry, looked up: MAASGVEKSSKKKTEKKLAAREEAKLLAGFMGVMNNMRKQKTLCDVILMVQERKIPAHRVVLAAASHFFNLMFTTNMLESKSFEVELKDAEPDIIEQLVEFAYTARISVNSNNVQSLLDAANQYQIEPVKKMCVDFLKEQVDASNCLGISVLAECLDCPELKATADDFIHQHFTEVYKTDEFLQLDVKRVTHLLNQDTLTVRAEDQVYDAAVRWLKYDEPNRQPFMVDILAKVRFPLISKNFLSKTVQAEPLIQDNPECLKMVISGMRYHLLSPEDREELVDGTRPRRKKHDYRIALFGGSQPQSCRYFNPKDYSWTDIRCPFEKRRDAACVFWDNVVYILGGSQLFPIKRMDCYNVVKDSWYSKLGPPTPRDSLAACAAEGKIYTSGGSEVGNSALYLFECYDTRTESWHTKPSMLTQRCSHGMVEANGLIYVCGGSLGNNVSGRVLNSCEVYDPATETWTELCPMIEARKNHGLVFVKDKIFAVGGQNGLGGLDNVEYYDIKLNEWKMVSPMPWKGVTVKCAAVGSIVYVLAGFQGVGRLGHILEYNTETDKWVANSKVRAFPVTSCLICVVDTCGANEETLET
UniProt Q53HC5: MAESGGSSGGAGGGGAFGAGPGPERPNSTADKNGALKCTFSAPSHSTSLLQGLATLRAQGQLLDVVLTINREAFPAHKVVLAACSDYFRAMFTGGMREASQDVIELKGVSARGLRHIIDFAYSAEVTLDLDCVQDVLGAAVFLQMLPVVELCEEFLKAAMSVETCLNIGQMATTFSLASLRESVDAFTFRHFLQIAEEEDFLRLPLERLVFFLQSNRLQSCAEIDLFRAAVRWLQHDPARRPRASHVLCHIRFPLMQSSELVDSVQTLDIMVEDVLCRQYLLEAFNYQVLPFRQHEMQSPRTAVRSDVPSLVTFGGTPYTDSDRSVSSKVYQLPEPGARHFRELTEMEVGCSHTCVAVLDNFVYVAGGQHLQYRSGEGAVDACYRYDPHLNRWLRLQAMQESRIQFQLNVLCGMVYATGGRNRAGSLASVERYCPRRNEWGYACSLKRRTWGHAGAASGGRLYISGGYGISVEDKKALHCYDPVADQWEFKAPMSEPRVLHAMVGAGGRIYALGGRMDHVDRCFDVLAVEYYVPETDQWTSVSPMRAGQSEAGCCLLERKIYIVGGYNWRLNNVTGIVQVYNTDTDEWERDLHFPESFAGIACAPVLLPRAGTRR
UniProt Q8N6L1: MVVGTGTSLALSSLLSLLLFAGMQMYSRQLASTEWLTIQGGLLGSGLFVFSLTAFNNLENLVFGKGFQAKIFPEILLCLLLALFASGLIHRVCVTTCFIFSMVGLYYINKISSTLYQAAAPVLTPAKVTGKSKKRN
UniProt Q53H82: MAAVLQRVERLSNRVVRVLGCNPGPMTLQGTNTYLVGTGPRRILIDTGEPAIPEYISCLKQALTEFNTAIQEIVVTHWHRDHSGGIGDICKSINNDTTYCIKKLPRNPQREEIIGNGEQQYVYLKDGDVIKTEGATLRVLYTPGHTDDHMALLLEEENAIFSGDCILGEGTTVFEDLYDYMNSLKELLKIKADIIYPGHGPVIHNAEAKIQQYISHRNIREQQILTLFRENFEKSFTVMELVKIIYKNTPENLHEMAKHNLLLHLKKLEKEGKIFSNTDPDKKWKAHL
UniProt P23276: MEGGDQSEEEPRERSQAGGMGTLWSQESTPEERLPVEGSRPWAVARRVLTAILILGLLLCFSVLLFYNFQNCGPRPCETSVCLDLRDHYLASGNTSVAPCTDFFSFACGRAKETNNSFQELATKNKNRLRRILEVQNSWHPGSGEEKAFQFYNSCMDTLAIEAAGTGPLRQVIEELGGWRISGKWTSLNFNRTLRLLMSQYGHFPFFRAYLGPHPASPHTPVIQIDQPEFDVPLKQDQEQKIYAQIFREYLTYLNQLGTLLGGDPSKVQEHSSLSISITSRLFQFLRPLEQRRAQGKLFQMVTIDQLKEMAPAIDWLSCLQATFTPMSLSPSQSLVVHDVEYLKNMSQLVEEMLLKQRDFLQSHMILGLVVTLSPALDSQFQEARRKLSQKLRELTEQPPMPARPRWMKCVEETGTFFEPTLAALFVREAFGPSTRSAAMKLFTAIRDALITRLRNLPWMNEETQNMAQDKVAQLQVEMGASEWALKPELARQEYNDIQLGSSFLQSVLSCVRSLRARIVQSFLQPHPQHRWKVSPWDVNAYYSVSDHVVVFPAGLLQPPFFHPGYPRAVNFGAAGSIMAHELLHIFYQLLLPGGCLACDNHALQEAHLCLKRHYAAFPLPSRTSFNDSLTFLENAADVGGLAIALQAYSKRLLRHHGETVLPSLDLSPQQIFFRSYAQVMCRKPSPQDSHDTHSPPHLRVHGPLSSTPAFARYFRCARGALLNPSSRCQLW
UniProt O14782: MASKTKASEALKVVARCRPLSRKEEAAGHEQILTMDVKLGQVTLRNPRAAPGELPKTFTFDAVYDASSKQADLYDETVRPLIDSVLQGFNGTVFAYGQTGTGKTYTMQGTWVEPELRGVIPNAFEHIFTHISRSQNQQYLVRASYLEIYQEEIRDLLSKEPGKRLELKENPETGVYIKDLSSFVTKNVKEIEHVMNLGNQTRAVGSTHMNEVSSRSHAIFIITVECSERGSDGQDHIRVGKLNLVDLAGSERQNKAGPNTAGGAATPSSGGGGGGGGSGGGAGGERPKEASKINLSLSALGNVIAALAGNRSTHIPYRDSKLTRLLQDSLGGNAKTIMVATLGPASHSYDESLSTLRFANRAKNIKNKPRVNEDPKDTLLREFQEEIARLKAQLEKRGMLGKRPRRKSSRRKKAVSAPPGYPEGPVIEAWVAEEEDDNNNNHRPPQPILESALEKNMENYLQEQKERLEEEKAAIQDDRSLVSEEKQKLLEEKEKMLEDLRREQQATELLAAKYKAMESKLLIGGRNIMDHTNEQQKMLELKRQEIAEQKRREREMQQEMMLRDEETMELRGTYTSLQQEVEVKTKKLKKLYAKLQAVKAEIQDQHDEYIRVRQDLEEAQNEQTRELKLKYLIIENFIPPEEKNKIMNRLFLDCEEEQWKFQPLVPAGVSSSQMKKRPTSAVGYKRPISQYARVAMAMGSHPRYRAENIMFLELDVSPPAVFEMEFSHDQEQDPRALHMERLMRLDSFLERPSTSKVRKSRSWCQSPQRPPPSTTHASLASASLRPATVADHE
UniProt Q15058: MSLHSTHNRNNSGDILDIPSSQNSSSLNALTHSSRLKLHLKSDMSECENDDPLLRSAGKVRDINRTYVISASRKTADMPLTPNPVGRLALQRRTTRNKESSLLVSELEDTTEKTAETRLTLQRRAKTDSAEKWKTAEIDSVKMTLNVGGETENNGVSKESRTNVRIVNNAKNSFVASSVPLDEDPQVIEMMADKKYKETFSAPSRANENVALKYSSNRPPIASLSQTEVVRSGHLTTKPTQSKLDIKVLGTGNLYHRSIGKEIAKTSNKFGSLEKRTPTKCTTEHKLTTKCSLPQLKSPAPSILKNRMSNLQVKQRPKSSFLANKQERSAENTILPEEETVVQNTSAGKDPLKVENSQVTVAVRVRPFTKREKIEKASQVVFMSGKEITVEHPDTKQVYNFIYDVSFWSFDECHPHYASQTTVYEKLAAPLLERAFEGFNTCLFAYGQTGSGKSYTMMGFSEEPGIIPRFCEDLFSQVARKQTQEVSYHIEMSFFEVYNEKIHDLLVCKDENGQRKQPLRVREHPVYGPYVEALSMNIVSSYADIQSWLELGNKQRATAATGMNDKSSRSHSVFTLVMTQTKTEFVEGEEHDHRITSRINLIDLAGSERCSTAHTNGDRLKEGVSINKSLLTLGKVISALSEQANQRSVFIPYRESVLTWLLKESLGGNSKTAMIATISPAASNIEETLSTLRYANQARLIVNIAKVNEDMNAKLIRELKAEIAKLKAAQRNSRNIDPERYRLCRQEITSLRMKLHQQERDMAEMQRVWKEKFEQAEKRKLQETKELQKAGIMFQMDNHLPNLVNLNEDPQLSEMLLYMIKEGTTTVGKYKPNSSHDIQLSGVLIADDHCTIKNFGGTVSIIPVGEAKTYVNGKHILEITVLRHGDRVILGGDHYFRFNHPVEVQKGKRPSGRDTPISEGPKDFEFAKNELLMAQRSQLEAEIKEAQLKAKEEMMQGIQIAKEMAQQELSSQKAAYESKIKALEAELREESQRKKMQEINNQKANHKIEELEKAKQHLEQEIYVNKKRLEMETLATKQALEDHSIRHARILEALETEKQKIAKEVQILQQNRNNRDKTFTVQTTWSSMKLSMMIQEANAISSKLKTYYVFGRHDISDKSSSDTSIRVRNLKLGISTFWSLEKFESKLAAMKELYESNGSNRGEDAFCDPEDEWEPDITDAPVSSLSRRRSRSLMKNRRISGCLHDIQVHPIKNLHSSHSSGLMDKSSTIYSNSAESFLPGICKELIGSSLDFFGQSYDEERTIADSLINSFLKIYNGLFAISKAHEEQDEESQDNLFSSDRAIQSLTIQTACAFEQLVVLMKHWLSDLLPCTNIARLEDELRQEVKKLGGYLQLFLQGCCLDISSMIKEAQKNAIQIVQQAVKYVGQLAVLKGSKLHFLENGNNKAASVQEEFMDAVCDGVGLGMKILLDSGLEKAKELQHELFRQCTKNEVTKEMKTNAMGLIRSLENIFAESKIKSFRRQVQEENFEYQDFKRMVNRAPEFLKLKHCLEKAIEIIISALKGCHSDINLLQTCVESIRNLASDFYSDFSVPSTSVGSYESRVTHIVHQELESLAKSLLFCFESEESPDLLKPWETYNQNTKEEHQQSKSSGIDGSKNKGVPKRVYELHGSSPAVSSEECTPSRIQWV
UniProt Q9Y448: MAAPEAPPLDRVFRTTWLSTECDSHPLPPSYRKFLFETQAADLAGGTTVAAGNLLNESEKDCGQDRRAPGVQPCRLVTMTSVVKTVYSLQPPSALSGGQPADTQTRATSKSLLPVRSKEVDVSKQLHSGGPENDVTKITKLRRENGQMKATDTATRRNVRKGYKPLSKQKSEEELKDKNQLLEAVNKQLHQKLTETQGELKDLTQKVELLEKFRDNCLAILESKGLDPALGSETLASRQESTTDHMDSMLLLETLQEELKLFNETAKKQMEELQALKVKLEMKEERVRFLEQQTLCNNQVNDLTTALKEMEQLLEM
UniProt Q6YP21: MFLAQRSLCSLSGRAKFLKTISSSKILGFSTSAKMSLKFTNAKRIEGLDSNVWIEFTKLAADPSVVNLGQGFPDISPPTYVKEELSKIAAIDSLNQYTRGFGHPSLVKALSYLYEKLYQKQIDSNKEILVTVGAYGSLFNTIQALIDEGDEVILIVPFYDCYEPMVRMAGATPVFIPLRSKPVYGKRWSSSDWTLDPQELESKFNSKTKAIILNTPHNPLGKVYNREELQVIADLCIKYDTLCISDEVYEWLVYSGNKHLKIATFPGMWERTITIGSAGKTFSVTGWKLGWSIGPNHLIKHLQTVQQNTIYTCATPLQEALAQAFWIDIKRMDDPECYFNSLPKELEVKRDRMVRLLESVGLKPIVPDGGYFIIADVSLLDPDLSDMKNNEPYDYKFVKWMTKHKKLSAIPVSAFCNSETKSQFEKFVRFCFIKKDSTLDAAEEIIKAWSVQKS
UniProt Q06136: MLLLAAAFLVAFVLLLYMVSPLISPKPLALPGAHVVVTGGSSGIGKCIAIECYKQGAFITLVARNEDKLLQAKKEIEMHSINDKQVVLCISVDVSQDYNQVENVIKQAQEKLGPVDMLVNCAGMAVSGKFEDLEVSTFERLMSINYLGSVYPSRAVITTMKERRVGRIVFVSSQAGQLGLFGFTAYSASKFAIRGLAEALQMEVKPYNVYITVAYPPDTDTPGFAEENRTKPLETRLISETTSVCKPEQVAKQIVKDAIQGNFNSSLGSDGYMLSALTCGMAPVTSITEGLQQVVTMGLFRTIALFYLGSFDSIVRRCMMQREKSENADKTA
UniProt Q14807: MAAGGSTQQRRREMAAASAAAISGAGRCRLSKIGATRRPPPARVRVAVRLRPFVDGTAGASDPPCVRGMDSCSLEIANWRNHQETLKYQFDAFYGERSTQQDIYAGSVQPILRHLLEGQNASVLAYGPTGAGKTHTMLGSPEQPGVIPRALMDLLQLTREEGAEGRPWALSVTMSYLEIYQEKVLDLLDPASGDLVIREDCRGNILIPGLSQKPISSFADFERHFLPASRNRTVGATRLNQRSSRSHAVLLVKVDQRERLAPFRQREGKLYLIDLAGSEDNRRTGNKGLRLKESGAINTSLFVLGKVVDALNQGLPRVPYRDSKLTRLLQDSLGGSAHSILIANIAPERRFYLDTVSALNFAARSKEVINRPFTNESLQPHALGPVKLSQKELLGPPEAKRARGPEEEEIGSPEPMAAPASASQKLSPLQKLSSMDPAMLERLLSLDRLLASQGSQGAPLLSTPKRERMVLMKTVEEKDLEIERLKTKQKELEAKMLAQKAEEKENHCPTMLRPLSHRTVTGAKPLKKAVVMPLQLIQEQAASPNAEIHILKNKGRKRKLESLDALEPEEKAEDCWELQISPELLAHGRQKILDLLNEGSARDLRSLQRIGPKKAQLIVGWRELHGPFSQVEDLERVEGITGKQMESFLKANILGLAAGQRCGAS

Compound: Cc1ncc(-c2ccnc(Nc3ccc(S(C)(=O)=O)cc3)n2)n1C(C)C
Test: log2 fold change, soluble protein after heating vs DMSO (PISA); higher = thermal stabilisation; K562 lysate, 10 uM; active = over 0.2 and 3.5 SD of the protein, either way, in both replicates (recomputed)
Method in brief: (§1)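 K562 pellets were dounce-homogenised in PBS pH 7.4 with 1 mM MgCl2, and the crude extract at 1 mg/mL protein was treated with 10 μM compound for 30 min. Aliquots were heated for 3 min across 48°C-58°C, pooled, and brought to 0.5% NP-40 at 4°C; soluble protein was the supernatant after 21,000xg for 90 min. Soluble protein was quantified by TMTpro 16plex LC-MS/MS with channel sums equalised, and reported as log2 fold change in thermal stability against DMSO controls, with values from duplicates.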

| Target | log2 fold change |
| --- | --- |
| KIF11 (UniProt P52732) | inactive: -0.018 |
| LARP1 (UniProt Q6PKG0) | inactive: -0.025 |
| KXD1 (UniProt Q9BQD3) | inactive: 0.024 |
| KLHL7 (UniProt Q8IXQ5) | inactive: 0.102 |
| KLHL26 (UniProt Q53HC5) | inactive: 0.021 |
| KIF5A (UniProt Q12840) | inactive: -0.003 |
| KRTCAP2 isoform 2 (UniProt Q8N6L1) | inactive: 0.097 |
| LACTB2 (UniProt Q53H82) | inactive: 0.004 |
| KEL (UniProt P23276) | inactive: 0.018 |
| KIAA1191 (UniProt Q96A73) | inactive: 0.004 |
| KPNB1 (UniProt Q14974) | inactive: 0.01 |
| L1RE1 (UniProt Q9UN81) | inactive: 0.005 |
| KIF3C (UniProt O14782) | inactive: 0.191 |
| KRAS (UniProt P01116) | inactive: 0.018 |
| KIF14 (UniProt Q15058) | inactive: 0.033 |
| LAMTOR4 (UniProt Q0VGL1) | inactive: -0.008 |

| Target | log2 fold change |
| --- | --- |
| KIF21A isoform 5 (UniProt Q7Z4S6) | inactive: 0 |
| KIF4B (UniProt Q2VIQ3) | inactive: 0.049 |
| KLHL42 (UniProt Q9P2K6) | inactive: -0.04 |
| KYNU (UniProt Q16719) | inactive: -0.103 |
| LARP1B, A0A3B3ISF0 | inactive: -0.007 |
| KNSTRN (UniProt Q9Y448) | inactive: -0.071 |
| KYAT3 (UniProt Q6YP21) | inactive: -0.029 |
| LAMP1 (UniProt P11279) | inactive: 0.002 |
| KIAA0513 (UniProt O60268) | inactive: 0.036 |
| KDSR (UniProt Q06136) | inactive: -0.025 |
| KIAA2013 (UniProt Q8IYS2) | inactive: 0.025 |
| KLHL41 (UniProt O60662) | inactive: -0.166 |
| KIF13A isoform 4 (UniProt Q9H1H9) | inactive: 0.009 |
| KTI12 (UniProt Q96EK9) | inactive: 0.017 |
| LANCL1 (UniProt O43813) | inactive: 0.023 |
| KIF22 (UniProt Q14807) | inactive: -0.029 |

Compound: Cn1cc(-c2ccc3c(c2)CCN3C(=O)Cc2cccc(C(F)(F)F)c2)c2c(N)ncnc21
Test: as above
Method in brief: as §1

| Target | log2 fold change |
| --- | --- |
| KIF11 (UniProt P52732) | inactive: 0.034 |
| LARP1 (UniProt Q6PKG0) | inactive: 0.026 |
| KXD1 (UniProt Q9BQD3) | inactive: -0.023 |
| KLHL7 (UniProt Q8IXQ5) | inactive: 0.084 |
| KLHL26 (UniProt Q53HC5) | inactive: 0.2 |
| KIF5A (UniProt Q12840) | inactive: 0.013 |
| KRTCAP2 isoform 2 (UniProt Q8N6L1) | inactive: -0.045 |
| LACTB2 (UniProt Q53H82) | inactive: -0.021 |
| KEL (UniProt P23276) | inactive: 0.018 |
| KIAA1191 (UniProt Q96A73) | inactive: 0.026 |
| KPNB1 (UniProt Q14974) | inactive: -0.002 |
| L1RE1 (UniProt Q9UN81) | inactive: 0.012 |
| KIF3C (UniProt O14782) | inactive: 0.062 |
| KRAS (UniProt P01116) | inactive: -0.015 |
| KIF14 (UniProt Q15058) | inactive: 0.007 |
| LAMTOR4 (UniProt Q0VGL1) | inactive: -0.016 |

| Target | log2 fold change |
| --- | --- |
| KIF21A isoform 5 (UniProt Q7Z4S6) | inactive: 0.001 |
| KIF4B (UniProt Q2VIQ3) | inactive: 0.096 |
| KLHL42 (UniProt Q9P2K6) | inactive: 0.032 |
| KYNU (UniProt Q16719) | inactive: -0.058 |
| LARP1B, A0A3B3ISF0 | inactive: 0.117 |
| KNSTRN (UniProt Q9Y448) | inactive: -0.005 |
| KYAT3 (UniProt Q6YP21) | inactive: 0.017 |
| LAMP1 (UniProt P11279) | inactive: -0.036 |
| KIAA0513 (UniProt O60268) | inactive: -0.02 |
| KDSR (UniProt Q06136) | inactive: -0.084 |
| KIAA2013 (UniProt Q8IYS2) | inactive: -0.01 |
| KLHL41 (UniProt O60662) | inactive: -0.079 |
| KIF13A isoform 4 (UniProt Q9H1H9) | inactive: 0.005 |
| KTI12 (UniProt Q96EK9) | inactive: 0.054 |
| LANCL1 (UniProt O43813) | inactive: 0.025 |
| KIF22 (UniProt Q14807) | inactive: -0.055 |

Compound: Cn1cc(CNCC2CCN(c3ncc(C(=O)NO)cn3)CC2)c2ccccc21 [quisinostat]
Test: as above
Method in brief: as §1

| Target | log2 fold change |
| --- | --- |
| KIF11 (UniProt P52732) | inactive: -0.022 |
| LARP1 (UniProt Q6PKG0) | inactive: 0.031 |
| KXD1 (UniProt Q9BQD3) | inactive: 0 |
| KLHL7 (UniProt Q8IXQ5) | inactive: 0.039 |
| KLHL26 (UniProt Q53HC5) | inactive: -0.029 |
| KIF5A (UniProt Q12840) | inactive: -0.021 |
| KRTCAP2 isoform 2 (UniProt Q8N6L1) | inactive: -0.158 |
| LACTB2 (UniProt Q53H82) | inactive: 0.027 |
| KEL (UniProt P23276) | inactive: -0.037 |
| KIAA1191 (UniProt Q96A73) | inactive: 0.012 |
| KPNB1 (UniProt Q14974) | inactive: -0.009 |
| L1RE1 (UniProt Q9UN81) | inactive: -0.022 |
| KIF3C (UniProt O14782) | inactive: -0.204 |
| KRAS (UniProt P01116) | inactive: 0.042 |
| KIF14 (UniProt Q15058) | inactive: -0.139 |
| LAMTOR4 (UniProt Q0VGL1) | inactive: -0.101 |

| Target | log2 fold change |
| --- | --- |
| KIF21A isoform 5 (UniProt Q7Z4S6) | inactive: -0.011 |
| KIF4B (UniProt Q2VIQ3) | inactive: -0.08 |
| KLHL42 (UniProt Q9P2K6) | inactive: -0.058 |
| KYNU (UniProt Q16719) | inactive: -0.033 |
| LARP1B, A0A3B3ISF0 | inactive: 0.002 |
| KNSTRN (UniProt Q9Y448) | inactive: 0.165 |
| KYAT3 (UniProt Q6YP21) | inactive: -0.021 |
| LAMP1 (UniProt P11279) | inactive: -0.113 |
| KIAA0513 (UniProt O60268) | inactive: -0.067 |
| KDSR (UniProt Q06136) | inactive: -0.069 |
| KIAA2013 (UniProt Q8IYS2) | inactive: 0.104 |
| KLHL41 (UniProt O60662) | inactive: -0.469 |
| KIF13A isoform 4 (UniProt Q9H1H9) | inactive: 0.001 |
| KTI12 (UniProt Q96EK9) | inactive: -0.018 |
| LANCL1 (UniProt O43813) | inactive: 0.001 |
| KIF22 (UniProt Q14807) | active: -0.451 |
